Measurements from publication PMC11211476.
Results are given in words; binding and its absence hold for the method and conditions named. Binding seen in cells or lysates may run through a third protein. A yes stands for co-enrichment or nearness to the bait. Other partners may have been found. Sequences can lack the tags named with a protein.

Target: T1, Flag-OTUD5-WT (UniProt Q3U2S4)
T1 sequence: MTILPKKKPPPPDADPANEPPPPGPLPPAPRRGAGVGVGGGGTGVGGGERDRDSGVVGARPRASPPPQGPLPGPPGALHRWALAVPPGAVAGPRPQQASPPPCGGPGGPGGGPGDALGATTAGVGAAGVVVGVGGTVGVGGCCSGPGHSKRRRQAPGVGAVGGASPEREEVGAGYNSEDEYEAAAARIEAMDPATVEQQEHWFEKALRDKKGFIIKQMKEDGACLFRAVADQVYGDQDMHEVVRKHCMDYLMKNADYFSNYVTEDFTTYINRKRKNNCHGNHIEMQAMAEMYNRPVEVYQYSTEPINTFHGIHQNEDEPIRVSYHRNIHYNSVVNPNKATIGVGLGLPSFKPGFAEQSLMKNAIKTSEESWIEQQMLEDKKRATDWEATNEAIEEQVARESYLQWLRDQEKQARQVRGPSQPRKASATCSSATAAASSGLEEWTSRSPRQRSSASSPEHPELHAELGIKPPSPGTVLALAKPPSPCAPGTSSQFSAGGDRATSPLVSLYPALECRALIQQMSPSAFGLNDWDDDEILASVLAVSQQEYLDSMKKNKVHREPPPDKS
Experiment: affinity purification with mass spectrometry; MPC5 cells transfected with Flag-vector or Flag-OTUD5; anti-Flag and protein A + G agarose beads; LC-MS/MS

binding: binds
B1: TGF-β-activated kinase 1 (TAK1), endogenous (enzyme, UniProt Q62073 1-579)
chain: MSTASAASSSSSSSASEMIEAPSQVLNFEEIDYKEIEVEEVVGRGAFGVVCKAKWRAKDVAIKQIESESERKAFIVELRQLSRVNHPNIVKLYGACLNPVCLVMEYAEGGSLYNVLHGAEPLPYYTAAHAMSWCLQCSQGVAYLHSMQPKALIHRDLKPPNLLLVAGGTVLKICDFGTACDIQTHMTNNKGSAAWMAPEVFEGSNYSEKCDVFSWGIILWEVITRRKPFDEIGGPAFRIMWAVHNGTRPPLIKNLPKPIESLMTRCWSKDPSQRPSMEEIVKIMTHLMRYFPGADEPLQYPCQYSDEGQSNSATSTGSFMDIASTNTSNKSDTNMEQVPATNDTIKRLESKLLKNQAKQQSESGRLSLGASRGSSVESLPPTSEGKRMSADMSEIEARIVATAGNGQPRRRSIQDLTVTGTEPGQVSSRSSSPSVRMITTSGPTSEKPARSHPWTPDDSTDTNGSDNSIPMAYLTLDHQLQPLAPCPNSKESMAVFEQHCKMAQEYMKVQTEIALLLQRKQELVAELDQDEKDQQNTSRLVQEHKKLLDENKSLSTYYQQCKKQLEVIRSQQQKRQGTS
